The values are deposited in ChEMBL (CHEMBL3988442, “University of Dundee, Small-Polar-MMV Screening Library” (2021)).

Mtb growth Cornell: 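Whole-cell assay for inhibitors of Mycobacterium tuberculosis growth, labelled Cornell in the record; the read-out is not stated. The concentration is filed as 10 mM, unlikely as a test dose, so the dose is not known. The record gives no direction; compounds strong in two other growth screens of this library score well above the rest, so higher reads as stronger inhibition. Of about 53,000 compounds tested this way, about 900 (1.7%) reached 50% or more in at least one test.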
Mtb heat-shock: 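Assay on Mycobacterium tuberculosis, filed only as a heat shock assay from Cornell; the read-out is not stated. The concentration is filed as 10 mM, unlikely as a test dose, so the dose is not known. Direction is inferred from retests: higher values go with stronger inhibition. About 69,000 compounds were tested under these conditions; 1.4% (about 930) showed 50% or more at least once.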

Each number is a percent effect as filed.
The controls that fix the scale are not given in the record; negative values are as filed.
This is an unselected part of the compounds tested.

- COC(=O)c1cccc2nc([C@H]3CCN(Cc4ccccc4F)C3)oc12 : Mtb growth Cornell: 10.35%; Mtb heat-shock: -56.67%
- CC(CN(C)Cc1cccc(-n2cccn2)c1)C(F)(F)F (centres unmarked) : Mtb growth Cornell: -8.537%; Mtb heat-shock: 11.45%
- CCCc1cc(N2CCCC2Cn2nc(C)nc2C)n2ncnc2n1 (centres unmarked) : Mtb growth Cornell: 5.014%; Mtb heat-shock: -2.109%
- CC(Cn1ccnc1)NC(=O)N(C)Cc1ccsc1 (centres unmarked) : Mtb growth Cornell: -2.948%; Mtb heat-shock: 3.726%
- CCN(CC)C(=O)c1nnn(-c2ccc(C)cc2)c1C1CC1 : Mtb growth Cornell: 20.75%; Mtb heat-shock: 7.981%
- Cc1ccc(CN2CCc3c(nc4cc(C5CC5)nn4c3O)C2)s1 : Mtb growth Cornell: -22.88%; Mtb heat-shock: -5.052%
- CCOC(=O)N1CCN(c2nc(CCN)nc3sc(C)c(C)c23)CC1 : Mtb growth Cornell: 2.225%; Mtb heat-shock: 82.82%
- COc1ccc(-c2nnc(CNCCn3cc(C)cn3)o2)cc1 : Mtb heat-shock: -10.51%
- O=C(Cc1ccccc1)NCc1ccc(-c2ccccc2C(=O)O)cn1 : Mtb growth Cornell: 48.74%; Mtb heat-shock: -0.5003%
- O=S(=O)(c1cc2ccccc2o1)N1CCCC1 : Mtb growth Cornell: 17.6%; Mtb heat-shock: 6.423%
- COc1ccnc(N2CCN(C(=O)Cc3ccc(C#N)cc3)CC2)n1 : Mtb heat-shock: -8.439%
- CC(C)n1cc(CN2CCCN(C(=O)c3ccnn3C)CC2)cn1 : Mtb growth Cornell: -19.02%; Mtb heat-shock: -27.49%
- [H][C@@]12CCN(Cc3ccco3)C[C@@]1([H])[C@H](C(=O)NC1CC1)CCO2 : Mtb growth Cornell: -19.66%; Mtb heat-shock: 12.12%
- CC(=O)Nc1ccc2c(c1)nc1n2[C@@H](CNCc2ccccc2)COC1 : Mtb heat-shock: -13.88%
- Cn1cc(-c2csc(N3CCSCC3)n2)cn1 : Mtb growth Cornell: -4.605%; Mtb heat-shock: 7.511%
- CC1CCN(C)c2ccccc2N1C(=O)c1ccn(C)c(=O)c1 (centres unmarked) : Mtb growth Cornell: -4.631%; Mtb heat-shock: 16.4%
- O=C(c1ccsc1)N1CCc2onc(CN3CCOCC3)c2C1 : Mtb growth Cornell: -20.17%; Mtb heat-shock: -13.24%
- CN(C)CCCn1ccc(-c2cccc(-c3ccccn3)c2)n1 : Mtb growth Cornell: -16.04%; Mtb heat-shock: -2.737%
- CC(C)(C)n1ncc2c1NC(=O)CC2c1ccsc1 (centres unmarked) : Mtb growth Cornell: 20.49%; Mtb heat-shock: 3.124%
- Cc1ccc(CN2Cc3ccnn3CC(C(=O)NCC3CC3)C2)o1.O=C(O)C(F)(F)F.O=C(O)C(F)(F)F (centres unmarked) : Mtb growth Cornell: 41.82%; Mtb heat-shock: -13.29%
- Cn1ccc2ccc(C(=O)N3CCC[C@H]3C(=O)N3CCOCC3)cc21 : Mtb heat-shock: 10.09%
- CCOCC(=O)N1CCC(C)(c2nccs2)CC1 : Mtb growth Cornell: -21.99%; Mtb heat-shock: -28.18%
- COc1ccc(CC(=O)NCC(O)c2sccc2C)cc1OC (centres unmarked) : Mtb growth Cornell: -9.76%; Mtb heat-shock: 0.2606%
- COc1ccc(C(C)N2CCC(C(=O)NC3CC3)CC2)cc1Cl (centres unmarked) : Mtb growth Cornell: 14.94%; Mtb heat-shock: 23.58%
- CC(Nc1nc2c(cnn2C)c(=O)[nH]1)c1ccc2c(c1)CCCC2 (centres unmarked) : Mtb growth Cornell: 42.64%; Mtb heat-shock: 13.62%
- [H][C@@]12CCN(Cc3ccco3)C[C@@]1([H])O[C@@H](C)C2 : Mtb growth Cornell: 3.707%; Mtb heat-shock: -24.75%
- CNC(=O)c1ccc(NC2CCN(CC(F)(F)F)C2=O)cc1Cl (centres unmarked) : Mtb heat-shock: -1.071%
- N#Cc1ccccc1C(=O)N1C[C@H](CO)C[C@H](CN2CCCC2)C1 : Mtb growth Cornell: -0.151%; Mtb heat-shock: 3.573%
- CC(C)(C)c1nnc(CN2CCN(CC(O)c3ccccc3)CC2)o1 (centres unmarked) : Mtb growth Cornell: 17.63%; Mtb heat-shock: -1.166%
- CCc1nc(CN(C)C2CCN(CCNS(=O)(=O)CC)C2)no1 (centres unmarked) : Mtb heat-shock: -15.7%
- Cn1nccc1NC(=O)CN1CCc2sccc2C1 : Mtb growth Cornell: -1.554%; Mtb heat-shock: -34.76%
- [H][C@]12CC[C@]([H])(CN(c3cnccn3)C1)N(C(=O)Cc1sc(C)nc1C)C2 : Mtb growth Cornell: -31.7%; Mtb heat-shock: -3.912%
- CC(C)n1nnnc1-c1ccc(NC(=O)CC(F)(F)F)cc1F : Mtb growth Cornell: 0.2172%; Mtb heat-shock: 9.656%
- O=C(Cc1ccc(F)cc1)N1CCN(CC(O)c2ccccc2)CC1 (centres unmarked) : Mtb heat-shock: -20.73%
- COc1ccc(CN2CCc3ncnc(OC(C)C)c3CC2)cc1.O=C(O)C(F)(F)F : Mtb growth Cornell: -7.699%; Mtb heat-shock: -0.1965%
- Cc1nn(C)c(N(C)C)c1CNCCS(C)(=O)=O : Mtb heat-shock: -8.342%
- C[S+]([O-])c1nncn1CC(=O)c1ccc(Br)cc1 (centres unmarked) : Mtb heat-shock: 11.9%
- CN(C)Cc1csc(-c2nccn2Cc2ccsc2)c1 : Mtb heat-shock: -9.176%
- Cc1nc2c(c(NC3CC3)n1)CCN(C(=O)CCc1cccnc1)CC2 : Mtb growth Cornell: 12.46%; Mtb heat-shock: -14.26%
- CC1CCCN(CCNC(=O)c2ccn(-c3cccc(F)c3)n2)C1 (centres unmarked) : Mtb growth Cornell: -20.68%; Mtb heat-shock: -9.759%
- Cc1cc(-c2cc3nc(C)c(C)c(NCC4COCCO4)n3n2)no1 (centres unmarked) : Mtb growth Cornell: 20.29%; Mtb heat-shock: 4.661%
- O=C(c1cnccn1)N1CCN(Cc2ccncc2)c2ncccc2C1 : Mtb growth Cornell: 9.795%; Mtb heat-shock: 18.33%
- O=C(O)C(F)(F)F.[H][C@]12CCN(Cc3c(C)noc3C)[C@@]1([H])CC[C@H](COCC(C)C)O2 : Mtb growth Cornell: 6.777%; Mtb heat-shock: 2.024%

Once more, the final 3:

| Compound | Mtb growth Cornell | Mtb heat-shock |
|---|---|---|
| `Cc1cc(-c2cc3nc(C)c(C)c(NCC4COCCO4)n3n2)no1` (centres unmarked) | 20.29 | 4.661 |
| `O=C(c1cnccn1)N1CCN(Cc2ccncc2)c2ncccc2C1` | 9.795 | 18.33 |
| `O=C(O)C(F)(F)F.[H][C@]12CCN(Cc3c(C)noc3C)[C@@]1([H])CC[C@H](COCC(C)C)O2` | 6.777 | 2.024 |